Assay: Continued coupling: difference in Dmin without stop bath versus with stop bath (C-41 process variants)
Conditions: for Delta Dmin Process A-C: bleach pH 5.25; for Delta Dmin Process B-C: bleach pH 6.0; for reduction of delta Dmin relative to comparative films containing S1 alone: process B, C5 in combination with A1
Description: Dispersions of couplers Ml and M2 were prepared (a) in comparative coupler solvents S1 and S2, (b) in a carbonamide coupler solvent of this invention, C1, and (c) in a 0.8:0.2 mixture of S1 and aniline compound A1. The weight ratio of coupler:solvent or coupler:solvent and aniline was 1:1. Dispersions were prepared by dissolving the coupler in a 1:3 mixture of coupler solvent plus cyclohexanone used as an auxiliary solvent, and aniline, if present. The mixtures were then added to an aqueous solution of gelatin and ALKANOL XC surfactant. The two-phase mixtures were passed through a colloid mill to disperse the coupler-containing oil phase in the aqueous phase in the form of small particles. The dispersion was then chilled, noodled and washed to remove the auxiliary cyclohexanone solvent. The resulting dispersions contained approximately 2% by weight of coupler and 6% by weight of gelatin.
The dispersions were coated on a transparent support at a coupler laydown of 0.54 mmole/m^2 together with a silver bromoiodide emulsion at a silver laydown of 1.08 g/m^2 in the following format:
The BVSME hardner is of the formula (CH2 =CH SO2 CH2--2 O. Coatings were then exposed and subjected to variants of the KODAK FLEXICOLOR (C-41) process described below. The C-41 process is described in British Journal of Photography Annual, 1988, pp. 196-198, discussed above. A first set of films was subjected to the standard C-41 process with no stop bath between the development and bleach steps (process A). A second set of films was also processed without a stop bath but with the FLEXICOLOR bleach pH adjusted to 6.0 instead of the normal 5.25 (process B). This was intended to simulate behavior in a "seasoned" bleach with increased pH due to carry-over of base from the developer solution. A third set of films was processed with an acetic acid stop bath between the development and bleach steps to eliminate any continued coupling (process C).
The differences in Dmin values resulting from process A and process C or process B and process C are measures of the continued coupling at bleach pH values of 5.25 and 6.0, respectively. Photographic gamma values, which serve as a measure of coupler activity, were obtained from plots of status M green density versus exposure for the various film samples subjected to process A. These gamma values are also listed in Table II.
Dispersions of pyrazolone magenta dye-forming couplers M3 and M4 were prepared in combination with coupler solvents S1 and C5, with and without aniline compound A1 by procedures similar to those of Example 2. The coupler:coupler solvent weight ratio was 1:1 for the dispersions without A1, and the dispersions with A1 were prepared at a 1:0.8:0.2 coupler:coupler solvent:A1 weight ratio. A dispersion of M4, C5 and amine compound All at M4:C5:All weight ratios of 1.0:0.85:0.15 was similarly prepared. These dispersions were coated on transparent supports at a coupler laydown of 0.54 mmole/m^2 together with a silver bromoiodide emulsion at a silver laydown of 1.08 g/m^2 as in Example 2. Hardened coatings were exposed and processed using procedures described in Example 2. The differences in Dmin values obtained with process A (Bleach pH=5.25, no stop bath) versus process C (Bleach pH=5.25, with stop bath) and with process B (Bleach pH= 6.0, no stop bath) versus process C are listed in Table III. Larger differences are indicative of higher undesirable continued coupling.

[1] = Table II, solvent S1(0.8), aniline A1(0.2)
[2] = Table III, solvent C5(0.8), aniline A1(0.2)
[3] = Table III, solvent S1(0.8), aniline A1(0.2)
[4] = Table III, solvent C5(0.85), amine A11(0.15)
[5] = Table II, solvent C1(1.0), no aniline
[6] = Table II, solvent S1(1.0), no aniline
[7] = Table II, solvent S2(1.0), no aniline

SMILES	Delta Dmin Process A-C [1]	Delta Dmin Process B-C [1]	Delta Dmin Process A-C [2]	Delta Dmin Process B-C [2]	Delta Dmin Process A-C [3]	Delta Dmin Process B-C [3]	reduction of delta Dmin relative to comparative films containing S1 alone	Delta Dmin Process A-C [4]	Delta Dmin Process B-C [4]	Delta Dmin Process A-C [5]	Delta Dmin Process B-C [5]	Delta Dmin Process A-C [6]	Delta Dmin Process B-C [6]	Delta Dmin Process A-C [7]	Delta Dmin Process B-C [7]
CCCCCCCCCCCCNS(=O)(=O)c1ccc(NC2=NN(c3c(Cl)cc(Cl)cc3Cl)C(=O)C2Sc2cc(C(C)(C)CC(C)(C)C)ccc2OCCCC)c(Cl)c1 (stereo not shown) [Coupler M1]	0.03	0.09	–	–	–	–	–	–	–	–	–	–	–	–	–
CCCCCCCCCCCCCC(=O)Nc1ccc(Cl)c(NC2=NN(c3c(Cl)cc(Cl)cc3Cl)C(=O)C2Sc2ccccc2NC(=O)C(CC)Oc2ccc(C(C)(C)CC)cc2C(C)(C)CC)c1 (stereo not shown) [Coupler M3]	–	–	0.02	0.05	0.03	0.09	five-fold	–	–	–	–	–	–	–	–
CCCCCCCCCCCCNS(=O)(=O)c1ccc(NC2=NN(c3c(Cl)cc(Cl)cc3Cl)C(=O)C2Sc2ccccc2NC(=O)C(CC)Oc2ccc(C(C)(C)CC)cc2C(C)(C)CC)c(Cl)c1 (stereo not shown) [Coupler M4]	–	–	0.05	0.12	0.17	0.33	four-fold	0.04	0.11	–	–	–	–	–	–
CCCCCCCCCCCCNS(=O)(=O)c1ccc(NC2=NN(c3c(Cl)cc(Cl)cc3Cl)C(=O)C2Sc2ccc(C(C)(C)CC)cc2C(C)(C)CC)c(Cl)c1 (stereo not shown) [Coupler M2]	0.00	0.06	–	–	–	–	–	–	–	0.00	0.03	0.05	0.17	0.09	0.25

— patent publication US5200309A, “Color photographic materials including magenta coupler, carbonamide compound and aniline or amine compound, and methods” (Eastman Kodak Company, priority 1991, dated 1993)
